Among the data in PMC2890305 (Chemical biology & drug design, 2010) are IC50 values, retold here.

This test deals with T1, Aminopeptidase N (APN) (Rattus norvegicus, UniProt P15684).
T1 sequence (P15684 33-965 limits assumed): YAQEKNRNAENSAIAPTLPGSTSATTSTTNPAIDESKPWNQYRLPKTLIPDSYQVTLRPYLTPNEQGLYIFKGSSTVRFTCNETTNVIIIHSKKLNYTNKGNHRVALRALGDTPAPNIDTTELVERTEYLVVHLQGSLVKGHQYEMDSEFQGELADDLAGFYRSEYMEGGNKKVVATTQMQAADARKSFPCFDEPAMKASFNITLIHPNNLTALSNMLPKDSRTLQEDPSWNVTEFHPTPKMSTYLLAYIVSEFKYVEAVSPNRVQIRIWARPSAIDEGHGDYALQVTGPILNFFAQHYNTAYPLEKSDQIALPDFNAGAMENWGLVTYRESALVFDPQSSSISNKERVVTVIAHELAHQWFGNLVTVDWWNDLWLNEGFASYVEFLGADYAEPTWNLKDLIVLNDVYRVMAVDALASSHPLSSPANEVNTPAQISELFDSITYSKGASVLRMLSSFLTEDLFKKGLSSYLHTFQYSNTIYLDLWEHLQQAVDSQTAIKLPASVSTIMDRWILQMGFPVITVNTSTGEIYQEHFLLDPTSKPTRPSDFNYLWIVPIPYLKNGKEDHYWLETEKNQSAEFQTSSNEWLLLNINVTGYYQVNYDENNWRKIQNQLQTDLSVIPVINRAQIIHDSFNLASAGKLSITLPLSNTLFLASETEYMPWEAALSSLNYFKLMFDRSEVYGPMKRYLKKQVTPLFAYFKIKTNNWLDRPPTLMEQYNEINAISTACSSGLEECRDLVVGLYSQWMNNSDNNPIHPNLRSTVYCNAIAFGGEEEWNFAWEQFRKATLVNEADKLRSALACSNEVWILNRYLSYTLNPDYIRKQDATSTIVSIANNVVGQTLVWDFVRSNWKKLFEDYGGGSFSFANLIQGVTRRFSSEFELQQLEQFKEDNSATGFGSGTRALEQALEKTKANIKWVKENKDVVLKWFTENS
The test can be described thus: Inhibition of APN aminopeptidase activity, increasing peptide concentrations. The class given is biochemical.

In general, IC50 refers to the point on the concentration scale where inhibition reaches its midpoint. Higher therefore signals weaker potency. Regarding `N=C(N)NCCC[C@@H]1NC(=O)CNC(=O)[C@H](CC(N)=O)NC(=O)[C@@H](N)CSSC[C@@H](C(=O)O)NC1=O` [CNGRC], the 50% inhibitory concentration (IC50) was approximately 300 µM.
